Measurements from PMC8039031.

The chains behind the UniProt entries cited, without tags or fusion partners. Where a name states a change or a piece, a line headed by the entry shows the natural chain unless it says otherwise.
UniProt P40763: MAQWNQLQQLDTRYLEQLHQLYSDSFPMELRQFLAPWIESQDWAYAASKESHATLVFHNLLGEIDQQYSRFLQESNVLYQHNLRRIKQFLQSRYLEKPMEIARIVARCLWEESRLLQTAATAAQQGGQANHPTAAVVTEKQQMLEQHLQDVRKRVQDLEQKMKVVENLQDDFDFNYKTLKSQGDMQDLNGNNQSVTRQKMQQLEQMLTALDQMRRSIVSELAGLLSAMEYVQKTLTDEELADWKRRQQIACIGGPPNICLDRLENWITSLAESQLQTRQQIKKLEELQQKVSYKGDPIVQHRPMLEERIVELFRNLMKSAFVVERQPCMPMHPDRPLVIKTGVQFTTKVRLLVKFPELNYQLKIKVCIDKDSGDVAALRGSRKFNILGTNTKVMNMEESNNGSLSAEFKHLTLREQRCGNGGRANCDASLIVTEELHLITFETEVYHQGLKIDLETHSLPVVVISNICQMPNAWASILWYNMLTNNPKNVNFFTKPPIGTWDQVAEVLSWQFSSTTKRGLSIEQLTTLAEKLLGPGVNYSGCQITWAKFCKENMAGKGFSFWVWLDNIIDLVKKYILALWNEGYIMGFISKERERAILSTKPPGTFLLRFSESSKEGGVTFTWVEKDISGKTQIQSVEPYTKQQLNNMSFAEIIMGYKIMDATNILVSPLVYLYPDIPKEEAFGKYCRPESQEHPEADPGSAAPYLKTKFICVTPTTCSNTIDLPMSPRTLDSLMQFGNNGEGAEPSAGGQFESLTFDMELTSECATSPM

Experiments:
[1] = target: T1, Myc-CREPT (cell cycle-related and elevated-expression protein in tumours, RPRD1B) (UniProt Q9NQG5); experiment: co-IP; exogenously expressed proteins, cells treated with LIF; HEK293T (Fig. 4a); cells of Fig. 4c not stated
T1 sequence: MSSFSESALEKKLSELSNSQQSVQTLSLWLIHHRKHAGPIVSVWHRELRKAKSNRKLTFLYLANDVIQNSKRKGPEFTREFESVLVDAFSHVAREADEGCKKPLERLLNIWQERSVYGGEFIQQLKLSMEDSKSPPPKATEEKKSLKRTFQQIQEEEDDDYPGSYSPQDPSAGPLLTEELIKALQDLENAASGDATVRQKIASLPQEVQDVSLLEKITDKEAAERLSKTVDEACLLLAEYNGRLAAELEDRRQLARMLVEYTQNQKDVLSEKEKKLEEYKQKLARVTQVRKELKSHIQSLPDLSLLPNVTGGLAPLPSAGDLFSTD

DB-LD domain of STAT3 = experiment: pull-down; GST pull-down using purified proteins, CREPT and deletion mutants of STAT3 (Fig. 4i); both purified
SH2-CT domain of STAT3 = experiment: as above

binding [1]: no binding
Molecule: STAT3C/Y705F (from UniProt P40763)

binding (DB-LD domain of STAT3): binds
binding (SH2-CT domain of STAT3): binds
B1: CREPT (purified protein of the GST pull-down of Fig. 4i) (protein, UniProt Q9NQG5 1-326)
chain: T1 sequence

No constants are given. Whether binding was seen depends on the method and setting. For part of these data: Binding calls can cover weak binding; strength is not graded here. Tags and fused reporters may be left off the sequences shown. For part of these data: Binding seen in cells or lysates may run through a third protein. Each block holds one molecule with its values, some of them ahead of it.
